PubChem BioAssay AID652243, Drosophila RNAi Screening Center | 2013

- Test: 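Fly genes required for human androgen receptor driven transcription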 (primary screen)
- Cells: Drosophila S2R+ cells
- Knock-down reagent: long dsRNA against Drosophila genes
- Timing: 72 h (48 h, then 24 h hormone)
- Challenge: synthetic androgen R1881 at 10 nM for 24 h
- Detection: 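Firefly light from an androgen-responsive reporter and Renilla control light per well, raw and unnormalised, for each of two replicates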
- Direction: firefly reporter light: higher = more light from androgen-responsive reporter; Renilla control light: higher = more constitutive control signal (cell number, transfection)
- Active means: 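Across duplicate plates, a knock-down whose log firefly/Renilla ratio shifted a set fold down or up from the GFP/LacZ control mean was a hit; the downward cut appears as both 1.5 and 3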
- Meaning of the calls: active = hit: reporter lowered or raised; inactive = no hit
The screen tested about 24,000 reagents; shown is an unselected part of those with a known target gene and a result. Over the whole deposit, 246 (1%) got an active call. 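Plates not normalised; calls are printed but the firefly/Renilla ratio behind them is not deposited; fold cut for lowering reported inconsistently.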 Raw values vary from plate to plate and are shown uncorrected. Entries without a mark were called inactive. Reagents against one gene are numbered here. Not stated in the record: the amount of reagent.

{"Target gene":"CG15784","reagent no.":1,"firefly reporter light, replicate 1":2.18e5,"firefly reporter light, replicate 2":2.91e5,"Renilla control light, replicate 1":2.65e6,"Renilla control light, replicate 2":2.79e6}
{"Target gene":"CG15784","reagent no.":2,"firefly reporter light, replicate 1":1.03e6,"firefly reporter light, replicate 2":1.05e6,"Renilla control light, replicate 1":1.33e6,"Renilla control light, replicate 2":1.21e6}
{"Target gene":"orb","reagent no.":1,"firefly reporter light, replicate 1":6.41e5,"firefly reporter light, replicate 2":7.56e5,"Renilla control light, replicate 1":1.13e6,"Renilla control light, replicate 2":1.41e6}
{"Target gene":"CG9010","reagent no.":1,"firefly reporter light, replicate 1":1.18e6,"firefly reporter light, replicate 2":1.08e6,"Renilla control light, replicate 1":2.32e6,"Renilla control light, replicate 2":1.73e6}
{"Target gene":"SNCF","reagent no.":1,"firefly reporter light, replicate 1":1.34e5,"firefly reporter light, replicate 2":1.54e5,"Renilla control light, replicate 1":1.47e6,"Renilla control light, replicate 2":1.24e6}
{"Target gene":"CG42700","reagent no.":1,"firefly reporter light, replicate 1":4.27e5,"firefly reporter light, replicate 2":3.64e5,"Renilla control light, replicate 1":2.00e6,"Renilla control light, replicate 2":1.89e6}
{"Target gene":"CG42700","reagent no.":2,"firefly reporter light, replicate 1":7.34e5,"firefly reporter light, replicate 2":8.49e5,"Renilla control light, replicate 1":1.52e6,"Renilla control light, replicate 2":1.80e6}
{"Target gene":"CG42700","reagent no.":3,"firefly reporter light, replicate 1":2.57e5,"firefly reporter light, replicate 2":2.74e5,"Renilla control light, replicate 1":6.64e5,"Renilla control light, replicate 2":6.92e5}
{"Target gene":"RtGEF","reagent no.":1,"firefly reporter light, replicate 1":69540,"firefly reporter light, replicate 2":78481,"Renilla control light, replicate 1":7.04e5,"Renilla control light, replicate 2":5.60e5}
{"Target gene":"RtGEF","reagent no.":2,"firefly reporter light, replicate 1":7.09e5,"firefly reporter light, replicate 2":7.15e5,"Renilla control light, replicate 1":1.91e6,"Renilla control light, replicate 2":1.93e6}
{"Target gene":"CG30048","reagent no.":1,"firefly reporter light, replicate 1":6.67e5,"firefly reporter light, replicate 2":7.85e5,"Renilla control light, replicate 1":1.80e6,"Renilla control light, replicate 2":1.49e6}
{"Target gene":"CG15198","reagent no.":1,"firefly reporter light, replicate 1":4.14e5,"firefly reporter light, replicate 2":3.41e5,"Renilla control light, replicate 1":2.57e6,"Renilla control light, replicate 2":2.99e6}

An excerpt from above, showing only “firefly reporter light, replicate 1”.
CG15784 #1 = 2.18e5
CG15784 #2 = 1.03e6

The list goes on:
{"Target gene":"Best4","reagent no.":1,"firefly reporter light, replicate 1":2.70e5,"firefly reporter light, replicate 2":1.98e5,"Renilla control light, replicate 1":1.69e6,"Renilla control light, replicate 2":1.77e6}
{"Target gene":"Best4","reagent no.":2,"firefly reporter light, replicate 1":3.65e5,"firefly reporter light, replicate 2":4.70e5,"Renilla control light, replicate 1":1.62e6,"Renilla control light, replicate 2":1.40e6}
{"Target gene":"Best4","reagent no.":3,"firefly reporter light, replicate 1":6.04e5,"firefly reporter light, replicate 2":6.04e5,"Renilla control light, replicate 1":1.89e6,"Renilla control light, replicate 2":2.25e6}
{"Target gene":"Gr10b","reagent no.":1,"firefly reporter light, replicate 1":3.66e5,"firefly reporter light, replicate 2":3.05e5,"Renilla control light, replicate 1":3.23e6,"Renilla control light, replicate 2":3.67e6}
{"Target gene":"Gr10b","reagent no.":2,"firefly reporter light, replicate 1":5.90e5,"firefly reporter light, replicate 2":4.96e5,"Renilla control light, replicate 1":1.12e6,"Renilla control light, replicate 2":1.03e6}
{"Target gene":"CG32809","reagent no.":1,"firefly reporter light, replicate 1":3.87e5,"firefly reporter light, replicate 2":1.96e5,"Renilla control light, replicate 1":1.57e6,"Renilla control light, replicate 2":1.29e6}
{"Target gene":"CG32809","reagent no.":2,"firefly reporter light, replicate 1":63478,"firefly reporter light, replicate 2":75534,"Renilla control light, replicate 1":6.31e5,"Renilla control light, replicate 2":4.51e5}
{"Target gene":"CG7080","reagent no.":1,"firefly reporter light, replicate 1":46422,"firefly reporter light, replicate 2":51230,"Renilla control light, replicate 1":6.67e5,"Renilla control light, replicate 2":7.60e5}
{"Target gene":"CG7080","reagent no.":2,"firefly reporter light, replicate 1":1.47e6,"firefly reporter light, replicate 2":8.93e5,"Renilla control light, replicate 1":5.32e6,"Renilla control light, replicate 2":2.20e6}
